No constants are given. Whether binding was seen depends on the method and setting. Some results given as binding are weak or reduced against the parent protein; the word gives no strength. Where a sequence is shown, tags or fusion partners need not be part of it.
Columns and labels:
[1] = target: T1, His-tagged, XPRESS epitope-containing recombinant human ANT3 (huANT3) expressed in baculovirus-infected T. ni cells (pMK4B-huANT3) (human) (UniProt P12236); test: pull-down on nickel agarose beads carrying His-tagged huANT3, EDTA elution, western blot with anti-GST
T1 sequence: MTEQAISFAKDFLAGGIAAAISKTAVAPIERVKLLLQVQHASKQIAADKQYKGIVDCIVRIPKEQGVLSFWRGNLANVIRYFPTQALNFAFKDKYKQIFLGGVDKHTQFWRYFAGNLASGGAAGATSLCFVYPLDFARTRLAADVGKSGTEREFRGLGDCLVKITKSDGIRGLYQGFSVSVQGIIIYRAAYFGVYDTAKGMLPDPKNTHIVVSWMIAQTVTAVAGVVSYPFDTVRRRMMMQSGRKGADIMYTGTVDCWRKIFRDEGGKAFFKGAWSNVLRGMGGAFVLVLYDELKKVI

Protein sequences, listed by entry. Tags and fused reporters are not part of them. Lines headed by an entry give the natural chain unless they say otherwise; changes in a name come on top.
UniProt P30405: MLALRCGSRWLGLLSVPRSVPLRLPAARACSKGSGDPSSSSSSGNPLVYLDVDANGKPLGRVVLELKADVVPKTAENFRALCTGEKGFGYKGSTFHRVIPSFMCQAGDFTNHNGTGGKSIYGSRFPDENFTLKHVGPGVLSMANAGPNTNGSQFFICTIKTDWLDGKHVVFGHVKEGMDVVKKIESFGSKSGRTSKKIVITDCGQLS

[2] = target: T1, His-tagged, XPRESS epitope-containing recombinant human ANT3 (huANT3) expressed in baculovirus-infected T. ni cells (pMK4B-huANT3) (human); test: co-sedimentation with proteoliposomes reconstituted with huANT3 and bacteriorhodopsin, western blot with anti-CypD antibodies; inhibited by cyclosporin A
[3] = target: T1, His-tagged, XPRESS epitope-containing recombinant human ANT3 (huANT3) expressed in baculovirus-infected T. ni cells (pMK4B-huANT3) (human); test: co-sedimentation with submitochondrial particles of T. ni cells expressing His-tagged huANT3 (1 mg SMP, 2.6 uM GST-CypD), western blot with anti-CypD antiserum
[4] = target: T1, His-tagged, XPRESS epitope-containing recombinant human ANT3 (huANT3) expressed in baculovirus-infected T. ni cells (pMK4B-huANT3) (human); test: pull-down on nickel agarose beads carrying His-tagged huANT3, western blot with anti-GST

Measured: binding

GST-CypD fusion protein (glutathione S-transferase fused to human cyclophilin D, expressed from pMK12-GST-huCypD) (from UniProt P30405 30-207)
binds: all assays above

Reference: US6797467B1, “Compositions and methods for determining interactions of mitochondrial components, and for identifying agents that alter such interactions” (MitoKor, Inc., priority 1999, dated 2004)
